In series [1] the target is T1, RifQ (Amycolatopsis mediterranei S699) (UniProt O52558).
T1 sequence (looked up): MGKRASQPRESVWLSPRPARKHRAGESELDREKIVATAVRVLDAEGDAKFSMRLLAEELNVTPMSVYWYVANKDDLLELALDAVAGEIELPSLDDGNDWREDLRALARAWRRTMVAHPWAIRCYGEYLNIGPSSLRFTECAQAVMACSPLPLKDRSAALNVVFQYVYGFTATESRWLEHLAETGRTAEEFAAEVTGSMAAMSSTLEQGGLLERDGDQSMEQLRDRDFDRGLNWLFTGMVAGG
Put plainly: EMSA. The following applies: all probe shifted at 0.2 uM RifQ, 8 nM probe, 100 ng/uL salmon sperm DNA; EMSA: 8 nM probe, 20 uL, 37 C 30 min, 100 ng/uL sheared salmon sperm DNA, 5% native PAGE in 0.5x TBE; recombinant protein; residues 1-242; label: 5'-FAM; probe letters rebuilt from the primers and the genome; part of a longer molecule. (In EMSA bound probe runs differently from free probe, usually more slowly.)

In series [2] the target is T1, RifQ (Amycolatopsis mediterranei S699). The experiment in a line: DNase I footprinting. As to conditions: footprinting: 40 nM probe, 40 uL, 37 C 30 min, DNase I at 25 C 1 min, binding buffer, salt and pH not stated, recombinant protein, residues 1-242, label: 5'-FAM, probe letters rebuilt from the primers and the genome, part of a longer molecule.

Construct, isoform or probe ends are uncertain for at least one entry. For some of these results: Weaker means in comparison with the reference protein, sequence or condition of that experiment. For some of these results: Protein sequences can lack the tags named with them.

Regarding “CGTCGAGCTGCATCTGTTCCCGGGCACGTTTCATGGCTCGGCCCGGTGCACGGACGCGGCGATCAGCCGGCGTGAGCAGGAGGAGCAGTTCGCGGTCCTGCGGCACGTGACCGGCCGCTGAAGCCTGGCGCCGGGGTGGCTCGCCGGATCGGCGGCGGCCGCGCGCCCGGCGGCGGCTGCCAGGTGCGGTCCCGTTCGCCGTTCCGCCCGGTGACCGGCCGCTGAGCCACGCCTGGATGGCCGCGCGCCTGGCGACCGCCCCCAGCAGCGTGGTCACCTCCGGCGTCGTCATCGCTGGTCACCGCAGGCGCCGAAACCCTCCCGACCCCCGCCCTTGCGCTCCGCCCACCGACCCTTATATGGTGTATAAGAACTTGTCGGACGCAATTCGCTACCGGGGGAGTCCTCTTGCGCGAAATGCACGCCACGGCGGCGGTGACCGAAACCCGGAATCCACGGCGCTGGCTGATTCTGGCCGTCATCTCGC (double strand) [rifP promoter probe]”, the binding result in series [1] was “binds”; in series [2] (40 nM probe, 100 ng/uL salmon sperm DNA), “binds”; in series [2] (0.6 mM rifamycin B), “binds more weakly”; in series [2] (rifamycin SV up to 20 mM), “binds”.

Source of the values: article PMC5787919, “A feedback regulatory model for RifQ-mediated repression of rifamycin export in Amycolatopsis mediterranei” (Microbial Cell Factories, 2018).
